# From the supplement of paper PMC7666118
# Chains of the proteins cited; added tags and fusions are not shown. Lines headed by an entry give the natural chain unless they say otherwise; changes in a name come on top.
# UniProt Q96SY0, whole entry: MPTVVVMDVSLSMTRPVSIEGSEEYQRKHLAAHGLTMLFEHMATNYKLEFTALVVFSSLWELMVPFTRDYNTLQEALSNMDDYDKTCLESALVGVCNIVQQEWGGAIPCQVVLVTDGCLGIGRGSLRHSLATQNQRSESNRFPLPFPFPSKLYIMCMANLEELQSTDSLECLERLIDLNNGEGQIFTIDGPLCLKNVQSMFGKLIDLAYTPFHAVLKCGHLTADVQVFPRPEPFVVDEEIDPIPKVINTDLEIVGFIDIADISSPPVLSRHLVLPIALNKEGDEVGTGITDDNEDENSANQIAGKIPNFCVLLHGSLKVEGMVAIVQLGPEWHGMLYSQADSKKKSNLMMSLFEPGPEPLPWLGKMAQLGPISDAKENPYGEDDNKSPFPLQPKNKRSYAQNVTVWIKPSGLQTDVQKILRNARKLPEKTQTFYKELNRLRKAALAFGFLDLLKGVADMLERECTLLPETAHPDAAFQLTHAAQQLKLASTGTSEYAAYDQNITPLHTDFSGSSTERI
# UniProt P50851: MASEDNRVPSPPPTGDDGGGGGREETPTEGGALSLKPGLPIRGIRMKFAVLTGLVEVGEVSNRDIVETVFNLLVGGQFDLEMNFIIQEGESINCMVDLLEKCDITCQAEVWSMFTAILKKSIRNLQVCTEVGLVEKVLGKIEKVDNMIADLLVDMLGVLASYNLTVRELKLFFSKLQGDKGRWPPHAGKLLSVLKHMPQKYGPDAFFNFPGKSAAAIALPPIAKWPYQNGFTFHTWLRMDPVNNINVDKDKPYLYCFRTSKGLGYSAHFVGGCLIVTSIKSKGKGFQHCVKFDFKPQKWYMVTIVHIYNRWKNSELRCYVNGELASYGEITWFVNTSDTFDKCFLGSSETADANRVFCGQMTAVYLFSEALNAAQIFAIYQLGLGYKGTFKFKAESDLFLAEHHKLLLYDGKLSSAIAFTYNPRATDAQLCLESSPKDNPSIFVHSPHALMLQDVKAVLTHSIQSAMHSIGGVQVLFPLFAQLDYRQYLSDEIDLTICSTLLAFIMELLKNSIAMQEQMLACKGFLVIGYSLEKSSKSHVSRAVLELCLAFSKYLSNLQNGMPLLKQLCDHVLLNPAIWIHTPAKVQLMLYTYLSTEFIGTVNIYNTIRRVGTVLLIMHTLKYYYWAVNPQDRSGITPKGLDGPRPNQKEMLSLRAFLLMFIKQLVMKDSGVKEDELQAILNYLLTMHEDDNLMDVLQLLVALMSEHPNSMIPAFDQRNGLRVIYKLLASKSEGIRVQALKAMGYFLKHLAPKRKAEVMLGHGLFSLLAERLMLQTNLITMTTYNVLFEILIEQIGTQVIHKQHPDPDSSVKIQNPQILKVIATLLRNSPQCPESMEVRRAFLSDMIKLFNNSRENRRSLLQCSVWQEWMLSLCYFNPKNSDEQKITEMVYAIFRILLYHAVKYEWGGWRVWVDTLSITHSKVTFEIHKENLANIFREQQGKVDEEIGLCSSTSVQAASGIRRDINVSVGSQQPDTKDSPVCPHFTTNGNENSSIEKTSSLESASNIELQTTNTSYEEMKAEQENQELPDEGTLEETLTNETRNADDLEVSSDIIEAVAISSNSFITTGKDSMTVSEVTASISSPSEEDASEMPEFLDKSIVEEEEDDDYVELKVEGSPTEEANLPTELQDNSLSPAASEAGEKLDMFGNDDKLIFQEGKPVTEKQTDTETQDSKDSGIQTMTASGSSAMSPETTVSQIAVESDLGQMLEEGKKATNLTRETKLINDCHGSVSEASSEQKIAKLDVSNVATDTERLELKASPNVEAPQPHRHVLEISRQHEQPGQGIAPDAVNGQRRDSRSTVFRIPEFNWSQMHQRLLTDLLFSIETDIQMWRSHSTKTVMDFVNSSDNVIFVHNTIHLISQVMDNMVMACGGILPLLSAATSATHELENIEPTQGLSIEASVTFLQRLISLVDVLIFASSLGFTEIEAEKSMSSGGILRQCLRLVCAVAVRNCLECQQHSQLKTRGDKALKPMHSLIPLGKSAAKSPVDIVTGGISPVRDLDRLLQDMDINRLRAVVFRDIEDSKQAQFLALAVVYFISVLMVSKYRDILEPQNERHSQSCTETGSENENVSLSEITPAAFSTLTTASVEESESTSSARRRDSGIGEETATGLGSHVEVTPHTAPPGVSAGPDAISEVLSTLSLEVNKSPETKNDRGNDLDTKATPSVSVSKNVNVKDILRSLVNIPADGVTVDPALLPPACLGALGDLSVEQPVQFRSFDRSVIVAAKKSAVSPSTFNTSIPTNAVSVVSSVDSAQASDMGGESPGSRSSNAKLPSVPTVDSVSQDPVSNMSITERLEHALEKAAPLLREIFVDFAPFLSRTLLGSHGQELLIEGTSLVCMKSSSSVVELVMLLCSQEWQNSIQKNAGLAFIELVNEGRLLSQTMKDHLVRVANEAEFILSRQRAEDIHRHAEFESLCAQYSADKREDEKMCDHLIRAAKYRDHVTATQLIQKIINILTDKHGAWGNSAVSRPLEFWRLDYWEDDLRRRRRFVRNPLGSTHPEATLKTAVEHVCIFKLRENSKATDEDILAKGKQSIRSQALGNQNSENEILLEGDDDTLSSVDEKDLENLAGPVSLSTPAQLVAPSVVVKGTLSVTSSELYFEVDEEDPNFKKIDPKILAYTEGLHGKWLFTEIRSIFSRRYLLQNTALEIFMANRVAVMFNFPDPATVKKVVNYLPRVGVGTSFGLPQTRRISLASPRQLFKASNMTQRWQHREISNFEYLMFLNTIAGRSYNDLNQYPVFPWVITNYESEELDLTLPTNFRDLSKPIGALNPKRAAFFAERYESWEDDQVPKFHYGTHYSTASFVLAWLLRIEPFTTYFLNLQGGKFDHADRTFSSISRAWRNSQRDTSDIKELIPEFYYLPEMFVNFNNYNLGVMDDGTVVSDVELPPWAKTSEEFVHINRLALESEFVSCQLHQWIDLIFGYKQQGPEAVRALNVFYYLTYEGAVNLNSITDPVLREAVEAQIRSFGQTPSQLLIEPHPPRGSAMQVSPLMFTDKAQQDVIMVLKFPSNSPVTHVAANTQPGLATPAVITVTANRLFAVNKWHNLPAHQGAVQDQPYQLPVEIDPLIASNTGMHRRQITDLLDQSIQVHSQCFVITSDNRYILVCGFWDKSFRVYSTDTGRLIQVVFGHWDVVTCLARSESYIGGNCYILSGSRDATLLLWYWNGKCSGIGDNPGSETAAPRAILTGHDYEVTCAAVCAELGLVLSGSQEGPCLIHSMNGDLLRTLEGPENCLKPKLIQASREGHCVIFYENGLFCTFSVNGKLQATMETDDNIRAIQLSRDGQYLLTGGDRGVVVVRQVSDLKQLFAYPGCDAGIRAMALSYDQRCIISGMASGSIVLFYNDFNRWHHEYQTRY
# UniProt Q9Y4L1: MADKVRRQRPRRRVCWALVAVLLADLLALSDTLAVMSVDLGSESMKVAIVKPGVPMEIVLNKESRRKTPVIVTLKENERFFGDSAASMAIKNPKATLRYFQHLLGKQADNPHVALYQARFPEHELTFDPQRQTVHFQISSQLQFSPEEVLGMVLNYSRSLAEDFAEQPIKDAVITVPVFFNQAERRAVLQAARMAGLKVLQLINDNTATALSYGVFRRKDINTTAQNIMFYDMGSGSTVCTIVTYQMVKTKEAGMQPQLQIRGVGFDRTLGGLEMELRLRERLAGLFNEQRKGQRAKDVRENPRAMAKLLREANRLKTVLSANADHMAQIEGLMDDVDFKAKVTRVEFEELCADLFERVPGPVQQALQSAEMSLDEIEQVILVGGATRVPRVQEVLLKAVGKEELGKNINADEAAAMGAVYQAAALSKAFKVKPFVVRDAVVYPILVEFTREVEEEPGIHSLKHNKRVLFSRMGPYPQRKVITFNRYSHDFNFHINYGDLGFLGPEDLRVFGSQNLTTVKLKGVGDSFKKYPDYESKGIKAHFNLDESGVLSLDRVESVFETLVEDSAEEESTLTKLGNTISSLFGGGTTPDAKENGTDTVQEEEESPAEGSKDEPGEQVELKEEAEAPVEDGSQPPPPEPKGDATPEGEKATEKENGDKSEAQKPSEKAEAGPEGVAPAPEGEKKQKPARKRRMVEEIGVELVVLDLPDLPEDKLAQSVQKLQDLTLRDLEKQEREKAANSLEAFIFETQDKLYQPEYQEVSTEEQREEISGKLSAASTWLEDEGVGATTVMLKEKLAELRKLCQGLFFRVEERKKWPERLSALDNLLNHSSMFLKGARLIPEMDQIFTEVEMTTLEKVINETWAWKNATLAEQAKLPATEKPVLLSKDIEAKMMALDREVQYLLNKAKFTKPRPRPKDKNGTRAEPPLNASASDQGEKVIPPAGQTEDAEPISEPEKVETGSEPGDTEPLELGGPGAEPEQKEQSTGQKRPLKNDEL
# UniProt Q2M2Z5: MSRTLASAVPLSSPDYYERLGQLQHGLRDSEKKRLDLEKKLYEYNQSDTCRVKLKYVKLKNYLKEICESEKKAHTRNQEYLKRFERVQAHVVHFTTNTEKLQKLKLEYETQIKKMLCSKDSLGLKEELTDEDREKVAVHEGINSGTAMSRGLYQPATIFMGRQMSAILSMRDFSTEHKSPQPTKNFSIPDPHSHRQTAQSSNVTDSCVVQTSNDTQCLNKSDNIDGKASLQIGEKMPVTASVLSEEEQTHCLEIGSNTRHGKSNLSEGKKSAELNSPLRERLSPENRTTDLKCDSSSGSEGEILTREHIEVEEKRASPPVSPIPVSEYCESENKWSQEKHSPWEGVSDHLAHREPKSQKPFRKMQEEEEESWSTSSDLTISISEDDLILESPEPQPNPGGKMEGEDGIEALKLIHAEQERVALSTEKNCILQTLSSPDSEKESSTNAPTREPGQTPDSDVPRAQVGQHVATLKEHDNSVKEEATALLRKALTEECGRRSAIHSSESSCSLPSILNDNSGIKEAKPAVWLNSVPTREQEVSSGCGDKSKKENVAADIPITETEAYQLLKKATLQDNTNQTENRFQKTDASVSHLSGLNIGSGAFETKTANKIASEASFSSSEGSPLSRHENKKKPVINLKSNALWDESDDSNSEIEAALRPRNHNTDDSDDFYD
# UniProt Q674X7: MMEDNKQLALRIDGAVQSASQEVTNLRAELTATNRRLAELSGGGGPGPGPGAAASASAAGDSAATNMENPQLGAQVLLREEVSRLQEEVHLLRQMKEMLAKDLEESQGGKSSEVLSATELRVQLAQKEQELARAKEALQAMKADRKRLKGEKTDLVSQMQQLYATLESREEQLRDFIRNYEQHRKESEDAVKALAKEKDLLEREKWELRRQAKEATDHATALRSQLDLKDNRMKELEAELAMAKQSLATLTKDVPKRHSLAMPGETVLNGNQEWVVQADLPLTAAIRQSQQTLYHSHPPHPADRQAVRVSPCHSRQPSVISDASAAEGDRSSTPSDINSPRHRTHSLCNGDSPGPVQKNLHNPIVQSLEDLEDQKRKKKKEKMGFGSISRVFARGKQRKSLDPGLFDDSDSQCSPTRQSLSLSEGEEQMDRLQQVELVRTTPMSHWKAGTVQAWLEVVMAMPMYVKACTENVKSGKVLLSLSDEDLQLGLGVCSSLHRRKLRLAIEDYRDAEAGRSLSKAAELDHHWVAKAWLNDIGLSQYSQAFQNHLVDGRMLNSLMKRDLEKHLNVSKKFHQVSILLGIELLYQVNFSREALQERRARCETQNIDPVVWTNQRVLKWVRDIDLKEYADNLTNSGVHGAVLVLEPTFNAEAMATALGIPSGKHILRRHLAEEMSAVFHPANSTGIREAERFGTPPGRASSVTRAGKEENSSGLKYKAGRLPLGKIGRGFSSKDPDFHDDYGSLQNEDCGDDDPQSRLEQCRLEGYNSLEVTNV
# UniProt Q9NUP9: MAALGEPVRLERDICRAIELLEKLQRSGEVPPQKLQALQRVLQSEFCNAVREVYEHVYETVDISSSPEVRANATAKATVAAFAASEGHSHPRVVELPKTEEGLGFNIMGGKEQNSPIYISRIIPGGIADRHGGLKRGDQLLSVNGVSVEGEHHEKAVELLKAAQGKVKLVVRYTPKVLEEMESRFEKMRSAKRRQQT
# UniProt Q5SSJ5: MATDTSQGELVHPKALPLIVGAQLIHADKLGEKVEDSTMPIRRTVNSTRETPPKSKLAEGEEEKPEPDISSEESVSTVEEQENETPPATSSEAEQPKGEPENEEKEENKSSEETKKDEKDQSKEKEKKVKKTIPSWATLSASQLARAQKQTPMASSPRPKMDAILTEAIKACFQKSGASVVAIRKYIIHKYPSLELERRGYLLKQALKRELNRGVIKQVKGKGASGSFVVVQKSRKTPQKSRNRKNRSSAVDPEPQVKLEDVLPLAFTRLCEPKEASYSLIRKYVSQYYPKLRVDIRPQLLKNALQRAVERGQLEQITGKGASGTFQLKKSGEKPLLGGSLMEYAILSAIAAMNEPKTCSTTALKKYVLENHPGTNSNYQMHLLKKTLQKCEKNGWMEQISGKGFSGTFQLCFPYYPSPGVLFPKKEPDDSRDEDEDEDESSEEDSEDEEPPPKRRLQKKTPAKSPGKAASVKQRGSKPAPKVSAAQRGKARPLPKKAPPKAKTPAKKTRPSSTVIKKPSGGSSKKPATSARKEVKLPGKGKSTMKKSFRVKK
# The list shows a part of the results.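 How the source made its calls: active = dose-dependent thermal stabilisation significant by F-test of dose-response against flat model at 10% FDR; inactive = not significant.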
# Compound: Nc1nc2c(ncn2[C@@H]2O[C@H](COP(=O)(O)OP(=O)(O)OP(=O)(O)O)[C@@H](O)[C@H]2O)c(=O)[nH]1
# Assay: dose-dependent thermal stabilisation call (2D-TPP, DLPTP, 10% FDR) (binary (1 = stabilised)); higher = stabilised by the compound
# Conditions: system: Jurkat gel-filtered lysate; concentration range 1-500 µM
# Description: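 2D thermal proteome profiling in gel-filtered Jurkat E6.1 lysate (2 mg/ml) treated with NaGTP (0, 1, 10, 100, 500 uM) for 10 min at room temperature, then heated 3 min at one of 12 temperatures (42-63.9 C). Soluble protein was quantified by TMT10 MS. The value is the DLPTP call of the paper: dose-dependent thermal stabilisation over all temperatures at 10% FDR (F-test of a dose-response against a flat model); one experiment, one call per tested protein.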
row,Target,dose-dependent thermal stabilisation call
1,KIF1B (UniProt O60333),active: 1
2,HYPK (UniProt Q9NX55),inactive: 0
3,KIAA0754 (UniProt O94854),inactive: 0
4,KIF5B (UniProt P33176),active: 1
5,IDH1 (UniProt O75874),inactive: 0
6,LARS (UniProt Q9P2J5),inactive: 0
7,INTS14 (UniProt Q96SY0),inactive: 0
8,KCTD10 (UniProt Q9H3F6),inactive: 0
9,LEO1 (UniProt Q8WVC0),inactive: 0
10,ILK (UniProt Q13418),active: 1
11,KBTBD11 (UniProt O94819),inactive: 0
12,HOOK3 (UniProt Q86VS8),inactive: 0
13,HPS1 (UniProt Q92902),inactive: 0
14,IFT22 (UniProt Q9H7X7),inactive: 0
15,JMJD1C (UniProt Q15652),inactive: 0
16,LPXN (UniProt O60711),inactive: 0
17,HSPBAP1 (UniProt Q96EW2),inactive: 0
18,LNPEP (UniProt Q9UIQ6),inactive: 0
19,ITSN2 (UniProt Q9NZM3),inactive: 0
20,IARS2 (UniProt Q9NSE4),inactive: 0

row,Target,dose-dependent thermal stabilisation call
1,LRBA (UniProt P50851),inactive: 0
2,INTS11 (UniProt Q5TA45),inactive: 0
3,KCTD9 (UniProt Q7L273),active: 1
4,HS1BP3 (UniProt Q53T59),inactive: 0
5,LIG1 (UniProt P18858),inactive: 0
6,HTT (UniProt P42858),active: 1
7,HYOU1 (UniProt Q9Y4L1),inactive: 0
8,KIZ (UniProt Q2M2Z5),inactive: 0
9,KIF14 (UniProt Q15058),inactive: 0
10,KAZN (UniProt Q674X7),inactive: 0
11,LAMTOR2 (UniProt Q9Y2Q5),inactive: 0
12,HNRNPR (UniProt O43390),inactive: 0
13,LIN7C (UniProt Q9NUP9),inactive: 0
14,LDLR (UniProt P01130),inactive: 0
15,IL16 (UniProt Q14005),inactive: 0
16,KEAP1 (UniProt Q14145),inactive: 0
17,I3L1I5 (UniProt Q6ZSZ5),inactive: 0
18,ING3 (UniProt Q9NXR8),inactive: 0
19,IRGQ (UniProt Q8WZA9),inactive: 0
20,HP1BP3 (UniProt Q5SSJ5),inactive: 0

# A section taken from the entries so far:
row,Target,dose-dependent thermal stabilisation call
13,LIN7C (UniProt Q9NUP9),inactive: 0
14,LDLR (UniProt P01130),inactive: 0
15,IL16 (UniProt Q14005),inactive: 0
